The numbers were not newly measured in paper PMC7101422, “N-Phenethyl Substitution in 14-Methoxy-N-methylmorphinan-6-ones Turns Selective µ Opioid Receptor Ligands into Dual µ/δ Opioid Receptor Agonists” (Scientific Reports, 2020), which cites them from elsewhere.

Marks after values point to notes of the source that are not given here.

This data set has as its system mice. The settings on record: tail-flick, s.c., at 30 min (peak effect); cited from earlier work.

`CN1CC[C@]23c4c5ccc(O)c4O[C@H]2[C@@H](O)C=C[C@H]3[C@H]1C5` [Morphine (1), Morphine, reference compound]: the “ED50 (95% CL)” value is reported as 3.06 (1.76–5.31)^b mg/kg.
